We go through four compounds from the supplement of paper PMC4635364.

SMILES strings stand for the structures. Where a name gives a salt, the structure may show the parent alone. The list shows a part of the results. Single values are uncertain here, since repeats match poorly.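 Cells: ReNCell VM human fetal ventral-midbrain neural progenitors, differentiated mitogen-free. Blinded raters compared doublecortin-stained (early neurons) or tyrosine hydroxylase-stained (dopaminergic neurons) images with untreated wells, where 0 means no change. After repeats and both raters were averaged, compounds scoring 2 or above became hits for retesting.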

The test deals with ReNCell VM. Put plainly: dopaminergic neuron differentiation score (TH+ cell fraction vs untreated, manual image score) (score (0 to 3)); higher = more TH+ dopaminergic neuron differentiation. Conditions: library: Tocriscreen; 2 uM; 4 weeks; BDNF 10 ng/ml + GDNF 10 ng/ml.
Regarding `S=C=Nc1cccc(C2(N3CCCCC3)CCCCC2)c1` [Metaphit], the “dopaminergic neuron differentiation score” value is inactive: 0.

Turning to `C[C@H]1CCC/C=C/[C@@H]2C[C@H](O)C[C@H]2[C@H](O)/C=C/C(=O)O1` [Brefeldin A], the “dopaminergic neuron differentiation score” value is inactive: 0.

As for `C[C@@]12N[C@@H](Cc3ccccc31)c1ccccc12` [(-)-MK 801 maleate], the “dopaminergic neuron differentiation score” value was inactive: 0.

Take `Cc1cccc(C(C)c2c[nH]cn2)c1C` (centres undefined) [Medetomidine hydrochloride]: the “dopaminergic neuron differentiation score” value is inactive: 0.
